Assay results from PMC5073233.

Protein sequences, listed by entry. Tags and fused reporters are not part of them. Lines headed by an entry give the natural chain unless they say otherwise; changes in a name come on top.
UniProt Q99814: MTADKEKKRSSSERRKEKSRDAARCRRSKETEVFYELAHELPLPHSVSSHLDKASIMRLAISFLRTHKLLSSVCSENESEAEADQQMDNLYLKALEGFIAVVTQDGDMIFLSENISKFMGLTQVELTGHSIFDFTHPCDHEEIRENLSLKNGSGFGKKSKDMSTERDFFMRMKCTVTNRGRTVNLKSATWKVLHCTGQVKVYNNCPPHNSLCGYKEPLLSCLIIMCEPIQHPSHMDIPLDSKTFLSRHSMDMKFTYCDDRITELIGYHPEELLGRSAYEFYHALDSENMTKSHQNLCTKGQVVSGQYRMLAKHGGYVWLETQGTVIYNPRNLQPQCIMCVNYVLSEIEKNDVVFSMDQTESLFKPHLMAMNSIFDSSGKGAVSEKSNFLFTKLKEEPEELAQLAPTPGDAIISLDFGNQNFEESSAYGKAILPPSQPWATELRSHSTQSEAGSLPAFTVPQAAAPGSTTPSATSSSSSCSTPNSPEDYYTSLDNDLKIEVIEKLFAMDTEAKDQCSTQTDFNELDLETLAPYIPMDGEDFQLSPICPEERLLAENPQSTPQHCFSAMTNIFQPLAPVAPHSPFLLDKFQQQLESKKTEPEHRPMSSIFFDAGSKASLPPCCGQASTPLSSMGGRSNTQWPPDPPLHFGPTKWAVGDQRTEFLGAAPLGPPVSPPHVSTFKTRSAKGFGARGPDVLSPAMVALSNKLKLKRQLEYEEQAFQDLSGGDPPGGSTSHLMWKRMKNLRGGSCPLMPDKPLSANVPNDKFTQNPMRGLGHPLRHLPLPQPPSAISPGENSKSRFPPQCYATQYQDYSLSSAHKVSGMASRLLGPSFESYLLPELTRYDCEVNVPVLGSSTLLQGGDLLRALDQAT

Biological target: HIF-2alpha (hPMSC nuclear extract) (Homo sapiens) (UniProt Q99814)
Test: EMSA
Conditions: LightShift EMSA kit: 1x binding buffer, 1 uL poly(dI-dC), 2.5% glycerol, 5 mM MgCl2, 0.05% NP-40 in 20 uL, 8 ug nuclear extract, room temperature 30 min, 6% gel, protein in an extract

CTCCCAAGTAGCTTGGATTACAGGCACGTGCCACCATGCCCAGCTAATTT (double strand) [MAPK3 promoter probe1 (HRE)]
binding result (nuclear extract of hypoxic (5% O2) hPMSCs, shift lost with 200-fold unlabeled probe, anti-HIF-2alpha supershift assay): binds | binding result (nuclear extract of normoxic (21% O2) hPMSCs, less shift than hypoxic extract (protein amount effect)): binds more weakly

For at least one entry, the source does not settle the construct or the ends of the probe. Results from cells or extracts need not show a direct contact. A weaker result is weaker than the reference pair of the same experiment.
